The other results are listed elsewhere or left out.
Columns and labels:
Assay in all cases: log2 fold change, soluble protein after heating vs DMSO (PISA); higher = thermal stabilisation; K562 cells, 10 uM, 30 min; active = over 0.2 and 3.5 SD of the protein, either way, in both replicates (recomputed)
[1] = compound: COC1=CC=C(C=C1)CN2C=CC3=C2C=C(C=C3)C(=O)NO
Method in brief: (§1)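 Soluble protein was quantified by TMTpro 16plex LC-MS/MS after channel sums were equalised. It was obtained as the supernatant after 21,000xg for 90 min from pooled aliquots of K562 cells (2×10^6 cells/mL, 10 μM compound, 30 min) heated for 3 min across 48°C-58°C and extracted in PBS with 0.5% NP-40 at 4°C. Thermal stability values are relative to control samples and come from duplicates. They are given as log2 fold changes.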

Amino acid sequences for entries named in this document (tags omitted). A change or cut given only in a name is not applied to a line headed by its entry.
UniProt Q6ZVK8: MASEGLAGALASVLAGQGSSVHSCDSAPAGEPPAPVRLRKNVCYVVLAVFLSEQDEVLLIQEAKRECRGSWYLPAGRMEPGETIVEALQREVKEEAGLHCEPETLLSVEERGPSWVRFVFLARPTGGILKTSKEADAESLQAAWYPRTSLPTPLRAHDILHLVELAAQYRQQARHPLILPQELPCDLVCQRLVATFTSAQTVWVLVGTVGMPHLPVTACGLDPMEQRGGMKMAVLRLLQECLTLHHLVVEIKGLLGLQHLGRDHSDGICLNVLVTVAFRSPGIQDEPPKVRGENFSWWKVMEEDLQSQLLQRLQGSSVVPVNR
UniProt Q9BW27: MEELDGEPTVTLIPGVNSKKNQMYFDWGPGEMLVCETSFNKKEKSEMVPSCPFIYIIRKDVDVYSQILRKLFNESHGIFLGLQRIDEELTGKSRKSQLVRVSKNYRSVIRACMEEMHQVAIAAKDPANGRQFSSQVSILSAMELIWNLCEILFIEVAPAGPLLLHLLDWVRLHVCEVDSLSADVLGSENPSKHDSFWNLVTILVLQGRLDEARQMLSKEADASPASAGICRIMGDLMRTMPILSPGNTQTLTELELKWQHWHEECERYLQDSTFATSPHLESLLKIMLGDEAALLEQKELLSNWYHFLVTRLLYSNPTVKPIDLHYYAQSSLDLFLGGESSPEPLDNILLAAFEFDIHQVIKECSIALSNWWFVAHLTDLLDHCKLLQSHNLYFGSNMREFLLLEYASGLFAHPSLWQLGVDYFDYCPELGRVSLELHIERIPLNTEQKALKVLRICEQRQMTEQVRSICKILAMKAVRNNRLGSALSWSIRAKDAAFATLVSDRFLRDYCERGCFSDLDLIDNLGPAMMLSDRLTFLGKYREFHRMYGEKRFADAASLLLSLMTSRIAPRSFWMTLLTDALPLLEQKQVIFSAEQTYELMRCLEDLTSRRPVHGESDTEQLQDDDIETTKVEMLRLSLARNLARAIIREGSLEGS
UniProt Q96DE0: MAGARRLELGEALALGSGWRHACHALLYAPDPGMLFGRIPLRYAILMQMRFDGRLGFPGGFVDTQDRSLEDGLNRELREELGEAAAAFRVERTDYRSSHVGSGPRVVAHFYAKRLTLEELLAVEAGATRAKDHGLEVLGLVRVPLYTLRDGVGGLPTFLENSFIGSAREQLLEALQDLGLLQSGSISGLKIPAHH
UniProt Q8TEM1: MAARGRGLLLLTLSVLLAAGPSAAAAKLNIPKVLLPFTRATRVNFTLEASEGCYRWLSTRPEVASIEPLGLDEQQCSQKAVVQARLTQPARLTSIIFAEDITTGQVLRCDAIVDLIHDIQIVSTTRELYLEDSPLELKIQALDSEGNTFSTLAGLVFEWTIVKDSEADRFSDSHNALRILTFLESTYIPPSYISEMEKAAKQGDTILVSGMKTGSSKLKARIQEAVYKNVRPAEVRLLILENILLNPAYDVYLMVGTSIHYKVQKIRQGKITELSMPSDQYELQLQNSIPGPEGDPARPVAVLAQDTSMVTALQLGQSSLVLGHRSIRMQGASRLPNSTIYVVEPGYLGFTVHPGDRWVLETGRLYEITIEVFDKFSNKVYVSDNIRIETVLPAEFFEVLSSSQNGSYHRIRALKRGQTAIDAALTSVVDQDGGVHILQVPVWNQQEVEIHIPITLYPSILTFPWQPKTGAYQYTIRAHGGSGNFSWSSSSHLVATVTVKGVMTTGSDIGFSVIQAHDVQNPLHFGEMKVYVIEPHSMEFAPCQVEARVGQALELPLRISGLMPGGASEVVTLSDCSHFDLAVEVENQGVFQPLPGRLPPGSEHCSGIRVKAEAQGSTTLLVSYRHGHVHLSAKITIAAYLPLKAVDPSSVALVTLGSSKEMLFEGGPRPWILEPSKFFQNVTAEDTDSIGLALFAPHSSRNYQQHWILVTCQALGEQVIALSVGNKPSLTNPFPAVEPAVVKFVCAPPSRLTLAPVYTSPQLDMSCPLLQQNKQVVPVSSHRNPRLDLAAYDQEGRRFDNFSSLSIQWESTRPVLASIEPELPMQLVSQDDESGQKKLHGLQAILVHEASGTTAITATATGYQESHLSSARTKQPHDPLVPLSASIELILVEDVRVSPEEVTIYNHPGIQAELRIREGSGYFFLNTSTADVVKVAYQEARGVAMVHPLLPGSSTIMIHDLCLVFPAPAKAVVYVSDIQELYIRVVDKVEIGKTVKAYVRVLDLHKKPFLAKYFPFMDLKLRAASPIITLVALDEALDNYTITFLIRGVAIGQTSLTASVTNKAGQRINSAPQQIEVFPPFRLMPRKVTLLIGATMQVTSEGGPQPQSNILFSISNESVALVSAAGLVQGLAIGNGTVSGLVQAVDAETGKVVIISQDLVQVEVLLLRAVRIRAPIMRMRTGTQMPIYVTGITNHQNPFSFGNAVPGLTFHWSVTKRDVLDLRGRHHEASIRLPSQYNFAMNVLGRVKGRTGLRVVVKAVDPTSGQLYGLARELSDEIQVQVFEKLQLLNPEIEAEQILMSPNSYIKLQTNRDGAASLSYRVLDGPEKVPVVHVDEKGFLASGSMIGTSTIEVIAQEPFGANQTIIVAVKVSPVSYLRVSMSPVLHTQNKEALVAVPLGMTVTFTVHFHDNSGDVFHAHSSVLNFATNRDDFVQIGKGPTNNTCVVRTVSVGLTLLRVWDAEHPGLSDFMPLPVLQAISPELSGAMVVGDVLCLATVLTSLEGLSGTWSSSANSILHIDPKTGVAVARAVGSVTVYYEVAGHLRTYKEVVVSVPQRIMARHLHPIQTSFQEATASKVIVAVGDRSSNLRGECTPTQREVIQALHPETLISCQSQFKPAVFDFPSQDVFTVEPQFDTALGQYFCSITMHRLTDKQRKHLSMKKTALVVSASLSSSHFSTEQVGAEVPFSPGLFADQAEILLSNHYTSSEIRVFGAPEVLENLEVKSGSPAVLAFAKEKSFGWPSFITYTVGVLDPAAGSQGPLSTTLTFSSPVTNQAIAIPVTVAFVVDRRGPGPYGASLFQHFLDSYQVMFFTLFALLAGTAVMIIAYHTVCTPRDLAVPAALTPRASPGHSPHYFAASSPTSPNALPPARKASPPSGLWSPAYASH
UniProt Q9H8K7: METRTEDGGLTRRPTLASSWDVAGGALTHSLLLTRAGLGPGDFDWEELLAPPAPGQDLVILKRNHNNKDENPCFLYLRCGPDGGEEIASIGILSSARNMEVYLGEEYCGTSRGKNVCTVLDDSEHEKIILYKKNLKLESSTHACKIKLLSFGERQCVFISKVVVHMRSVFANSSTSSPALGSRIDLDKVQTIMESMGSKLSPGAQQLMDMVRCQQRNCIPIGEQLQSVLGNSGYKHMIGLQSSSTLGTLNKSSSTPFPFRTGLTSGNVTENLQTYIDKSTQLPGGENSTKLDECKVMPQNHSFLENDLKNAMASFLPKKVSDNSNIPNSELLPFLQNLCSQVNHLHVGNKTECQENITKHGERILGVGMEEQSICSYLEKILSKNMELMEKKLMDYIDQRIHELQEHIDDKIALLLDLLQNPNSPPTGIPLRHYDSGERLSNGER
UniProt Q9BV86: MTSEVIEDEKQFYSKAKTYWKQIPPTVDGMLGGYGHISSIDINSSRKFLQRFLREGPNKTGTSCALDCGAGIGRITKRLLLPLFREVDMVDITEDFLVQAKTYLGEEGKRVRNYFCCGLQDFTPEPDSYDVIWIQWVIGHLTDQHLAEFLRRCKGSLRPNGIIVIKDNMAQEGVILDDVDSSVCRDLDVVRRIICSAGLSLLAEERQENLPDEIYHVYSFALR
UniProt Q8TCD5: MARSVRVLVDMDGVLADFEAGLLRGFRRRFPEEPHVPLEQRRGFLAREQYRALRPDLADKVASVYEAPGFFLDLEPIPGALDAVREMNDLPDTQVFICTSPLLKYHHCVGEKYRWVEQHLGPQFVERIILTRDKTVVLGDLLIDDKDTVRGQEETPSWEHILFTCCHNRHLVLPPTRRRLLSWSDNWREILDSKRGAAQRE
UniProt Q14980: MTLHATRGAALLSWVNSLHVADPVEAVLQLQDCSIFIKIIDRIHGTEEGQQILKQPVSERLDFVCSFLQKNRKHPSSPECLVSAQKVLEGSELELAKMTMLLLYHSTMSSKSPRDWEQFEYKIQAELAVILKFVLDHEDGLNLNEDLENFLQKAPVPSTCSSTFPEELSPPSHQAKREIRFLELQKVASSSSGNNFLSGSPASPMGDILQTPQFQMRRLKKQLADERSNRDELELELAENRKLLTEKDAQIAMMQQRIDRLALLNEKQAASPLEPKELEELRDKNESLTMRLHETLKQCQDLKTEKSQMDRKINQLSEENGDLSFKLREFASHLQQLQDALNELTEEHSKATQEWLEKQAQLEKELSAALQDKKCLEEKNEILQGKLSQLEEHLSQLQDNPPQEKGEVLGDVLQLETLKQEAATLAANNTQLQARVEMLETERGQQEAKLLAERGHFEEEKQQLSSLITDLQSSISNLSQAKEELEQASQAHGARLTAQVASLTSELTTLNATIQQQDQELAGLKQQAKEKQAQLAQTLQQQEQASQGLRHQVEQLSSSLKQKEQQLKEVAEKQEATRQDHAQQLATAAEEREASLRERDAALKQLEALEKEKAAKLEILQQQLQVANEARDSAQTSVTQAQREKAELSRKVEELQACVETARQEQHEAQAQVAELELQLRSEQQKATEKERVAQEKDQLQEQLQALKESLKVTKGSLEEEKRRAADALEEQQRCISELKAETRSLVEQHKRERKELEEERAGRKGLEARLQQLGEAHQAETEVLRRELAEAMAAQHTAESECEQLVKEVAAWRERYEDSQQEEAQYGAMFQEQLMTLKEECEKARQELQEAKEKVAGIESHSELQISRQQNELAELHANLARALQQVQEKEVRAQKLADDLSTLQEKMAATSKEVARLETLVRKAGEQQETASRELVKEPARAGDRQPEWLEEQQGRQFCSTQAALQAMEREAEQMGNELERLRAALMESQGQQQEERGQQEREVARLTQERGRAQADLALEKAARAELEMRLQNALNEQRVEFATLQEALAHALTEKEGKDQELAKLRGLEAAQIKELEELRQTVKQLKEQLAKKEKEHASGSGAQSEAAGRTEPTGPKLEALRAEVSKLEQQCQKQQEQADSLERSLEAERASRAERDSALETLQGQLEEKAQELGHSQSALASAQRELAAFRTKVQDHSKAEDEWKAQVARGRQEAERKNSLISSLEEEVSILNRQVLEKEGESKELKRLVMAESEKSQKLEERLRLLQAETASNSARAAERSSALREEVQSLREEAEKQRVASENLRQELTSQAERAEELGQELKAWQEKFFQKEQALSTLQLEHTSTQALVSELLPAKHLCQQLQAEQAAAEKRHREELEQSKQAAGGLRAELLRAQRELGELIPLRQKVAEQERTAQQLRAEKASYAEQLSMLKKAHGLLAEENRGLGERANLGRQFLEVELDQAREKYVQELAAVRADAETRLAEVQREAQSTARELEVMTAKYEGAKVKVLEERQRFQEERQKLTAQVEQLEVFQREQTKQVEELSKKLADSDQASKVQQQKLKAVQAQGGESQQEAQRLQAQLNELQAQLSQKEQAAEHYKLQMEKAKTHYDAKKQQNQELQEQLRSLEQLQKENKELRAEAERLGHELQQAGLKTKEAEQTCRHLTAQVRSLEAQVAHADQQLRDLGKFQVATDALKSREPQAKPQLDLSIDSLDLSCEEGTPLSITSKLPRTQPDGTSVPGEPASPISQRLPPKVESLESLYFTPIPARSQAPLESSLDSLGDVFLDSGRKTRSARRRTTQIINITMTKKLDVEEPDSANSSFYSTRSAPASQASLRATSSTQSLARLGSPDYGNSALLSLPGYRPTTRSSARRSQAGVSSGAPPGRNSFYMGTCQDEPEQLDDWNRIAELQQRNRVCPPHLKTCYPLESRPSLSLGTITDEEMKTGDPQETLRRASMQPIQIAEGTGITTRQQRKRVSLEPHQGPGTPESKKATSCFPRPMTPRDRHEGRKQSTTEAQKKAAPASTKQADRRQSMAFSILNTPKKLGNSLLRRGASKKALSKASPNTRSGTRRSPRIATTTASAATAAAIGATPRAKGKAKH
UniProt P04181: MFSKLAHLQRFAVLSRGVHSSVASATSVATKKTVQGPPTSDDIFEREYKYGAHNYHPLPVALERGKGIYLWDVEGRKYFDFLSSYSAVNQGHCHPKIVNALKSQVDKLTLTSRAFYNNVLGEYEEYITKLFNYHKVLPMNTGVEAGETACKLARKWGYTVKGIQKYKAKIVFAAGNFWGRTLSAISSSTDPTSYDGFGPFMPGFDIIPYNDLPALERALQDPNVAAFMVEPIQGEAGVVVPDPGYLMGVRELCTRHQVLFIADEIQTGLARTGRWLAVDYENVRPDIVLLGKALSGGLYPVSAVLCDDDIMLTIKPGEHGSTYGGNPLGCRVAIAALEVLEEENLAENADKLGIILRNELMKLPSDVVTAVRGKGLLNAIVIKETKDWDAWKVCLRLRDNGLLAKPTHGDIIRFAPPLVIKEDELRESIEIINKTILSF

[2] = compound: CON(C)C(=O)N1N=C(c2cc(F)ccc2F)S[C@@]1(CCCN)c1ccccc1 [filanesib]
Method in brief: as §1

[3] = compound: CO[C@H]1C[C@@H]2CC[C@@H](C)[C@@](O)(O2)C(=O)C(=O)N2CCCC[C@H]2C(=O)O[C@H]([C@H](C)C[C@@H]2CC[C@H](n3cnnn3)[C@H](OC)C2)CC(=O)[C@H](C)/C=C(\C)[C@@H](O)[C@@H](OC)C(=O)[C@H](C)C[C@H](C)/C=C/C=C/C=C/1C [zotarolimus]
Method in brief: as §1

[4] = compound: COc1cc(C(=O)O)ccc1NC(=O)[C@@H]1N[C@@H](CC(C)(C)C)[C@](C#N)(c2ccc(Cl)cc2F)[C@H]1c1cccc(Cl)c1F [idasanutlin]
Method in brief: as §1

[5] = compound: COc1cc(Nc2ncc3c(n2)-c2ccc(Cl)cc2C(c2c(F)cccc2OC)=NC3)ccc1C(=O)O [alisertib]
Method in brief: as §1

[6] = compound: COc1cc2nc(-c3cc(F)ccc3O)nc(N[C@@H]3CNC[C@H]3C(C)(C)O)c2cc1OC
Method in brief: as §1

[7] = compound: COc1cc2ncnc(Nc3ccc(F)c(Cl)c3)c2cc1OCCCN1CCOCC1 [gefitinib]
Method in brief: as §1

[8] = compound: COc1cccc2cc(-c3nc([C@H]4CC[C@H](C(=O)O)CC4)n4ncnc(N)c34)[nH]c12
Method in brief: as §1

[9] = compound: CS(=O)(=O)CCNCc1ccc(-c2ccc3ncnc(Nc4ccc(OCc5cccc(F)c5)c(Cl)c4)c3c2)o1 [lapatinib]
Method in brief: as §1

[10] = compound: CS(=O)(=O)N1CCN(Cc2cc3nc(-c4cccc5[nH]ncc45)nc(N4CCOCC4)c3s2)CC1 [pictilisib]
Method in brief: as §1

[11] = compound: CS(=O)(=O)c1ccc(-c2cnc(N)c(C(=O)Nc3ccccc3)n2)cc1
Method in brief: as §1

[12] = compound: C[C@@H](Oc1cc(-c2cnn(C3CCNCC3)c2)cnc1N)c1c(Cl)ccc(F)c1Cl [crizotinib]
Method in brief: as §1

[13] = compound: C[C@@H]1COCCN1C2=NC(=NC(=C2)C3(CC3)S(=O)(=O)C)C4=C5C=CNC5=CC=C4
Method in brief: as §1

[14] = compound: C[C@H](C1=CC=C(C=C1)C(=O)NC2=C3C=CNC3=NC=C2)N
Method in brief: as §1

[15] = compound: C[C@H](Nc1ncnc2nc[nH]c12)c1cc2cccc(Cl)c2c(=O)n1-c1ccccc1 [duvelisib]
Method in brief: as §1

[16] = compound: Cc1cc(Nc2cc(CN3CCOCC3)c3nc(C)c(Cc4ccc(Cl)cc4F)n3n2)n[nH]1 [gandotinib]
Method in brief: as §1

[17] = compound: Cc1cc(Nc2cc(N3CCN(C)CC3)nc(Sc3ccc(NC(=O)C4CC4)cc3)n2)n[nH]1 [tozasertib]
Method in brief: as §1

[18] = compound: Cc1cc(SCc2sc(-c3ccc(C(F)(F)F)cc3)nc2C)ccc1OCC(=O)O
Method in brief: as §1

[19] = compound: Cc1ccc(-n2nc(C(C)(C)C)cc2NC(=O)Nc2ccc(OCCN3CCOCC3)c3ccccc23)cc1 [doramapimod]
Method in brief: as §1

[20] = compound: Cc1ccc(C(=O)N(CCCN)[C@@H](c2nc3cc(Cl)ccc3c(=O)n2Cc2ccccc2)C(C)C)cc1 [ispinesib]
Method in brief: as §1

Measured: log2 fold change

NUCB1 (UniProt Q02818)
inactive: [1] -0.025 | [2] -0.032 | [3] -0.033 | [4] 0.005 | [5] -0.046 | [6] -0.02 | [7] -0.007 | [8] 0.013 | [9] 0.01 | [10] -0.032 | [11] -0.037 | [12] -0.01 | [13] -0.064 | [14] -0.017 | [15] -0.007 | [16] 0.009 | [17] -0.008 | [18] -0.054 | [19] 0.018 | [20] 0.034

OXR1 (UniProt Q8N573)
inactive: [1] -0.018 | [2] -0.078 | [3] 0.009 | [4] -0.014 | [5] -0.059 | [6] 0.034 | [7] 0.003 | [8] 0.018 | [9] 0.011 | [10] 0.164 | [11] 0.02 | [12] -0.074 | [13] 0.014 | [14] -0.048 | [16] 0 | [18] -0.011 | [19] 0.001 | [20] -0.095

NUDT18 (UniProt Q6ZVK8)
inactive: [1] -0.095 | [2] 0.013 | [3] -0.283 | [4] -0.049 | [5] -0.168 | [6] 0.008 | [7] -0.047 | [8] 0.01 | [9] -0.059 | [10] -0.076 | [11] 0 | [12] 0.079 | [13] -0.263 | [14] -0.109 | [16] 0.032 | [17] -0.025 | [19] -0.11 | [20] 0.013

NUP85 (UniProt Q9BW27)
inactive: [1] 0.01 | [2] -0.009 | [3] -0.022 | [4] 0.016 | [5] -0.061 | [6] -0.038 | [7] 0.025 | [8] 0.043 | [9] -0.042 | [10] 0.049 | [11] 0.022 | [12] -0.007 | [13] 0.049 | [14] -0.088 | [16] -0.107 | [18] 0.026 | [19] -0.021 | [20] 0.015

NUDT16 (UniProt Q96DE0)
inactive: [1] -0.033 | [2] -0.018 | [3] 0.1 | [4] -0.01 | [5] -0.168 | [6] 0.025 | [7] 0.005 | [8] 0.112 | [9] 0.054 | [10] 0.045 | [11] 0.054 | [12] 0.052 | [13] 0.042 | [14] -0.169 | [16] 0.063 | [18] 0 | [19] -0.034 | [20] 0.067

NUP93 (UniProt Q8N1F7)
inactive: [1] 0.006 | [2] -0.044 | [3] 0.012 | [4] -0.033 | [5] -0.036 | [6] 0.018 | [7] -0.003 | [8] -0.087 | [9] -0.011 | [10] -0.011 | [11] 0.003 | [12] -0.135 | [13] 0.026 | [14] 0.025 | [15] -0.016 | [16] -0.045 | [17] 0.168 | [18] 0.063 | [19] 0.015 | [20] -0.028

NUDT5 (UniProt Q9UKK9)
inactive: [1] 0.073 | [2] -0.023 | [3] -0.017 | [4] 0.016 | [5] -0.03 | [6] -0.001 | [7] -0.015 | [8] 0.077 | [9] -0.027 | [10] -0.003 | [11] 0.001 | [12] -0.005 | [13] 0.033 | [14] -0.037 | [15] -0.043 | [16] 0.01 | [17] -0.018 | [18] -0.065 | [19] -0.043 | [20] 0.094

OXA1L (UniProt Q15070)
inactive: [1] -0.023 | [2] -0.123 | [3] 0.009 | [4] -0.029 | [5] 0.003 | [6] -0.186 | [7] -0.004 | [8] 0.053 | [9] 0.013 | [10] 0.058 | [11] -0.042 | [12] -0.064 | [13] 0.004 | [14] -0.018 | [16] 0.012 | [18] 0.018 | [19] -0.01 | [20] -0.1

OGFR (UniProt Q9NZT2)
inactive: [1] -0.005 | [2] 0.048 | [3] 0.137 | [4] -0.042 | [5] -0.157 | [6] 0.023 | [7] -0.015 | [8] -0.152 | [9] 0 | [10] 0.019 | [11] 0.074 | [12] -0.067 | [13] 0.034 | [14] 0.19 | [16] -0.058 | [18] 0.133 | [19] 0.082 | [20] -0.068

NUP210 (UniProt Q8TEM1)
active: [6] -0.319 | [12] -0.235 | [20] -0.351
inactive: [1] -0.099 | [2] -0.08 | [3] 0.002 | [4] 0.019 | [5] -0.045 | [7] -0.053 | [8] 0.045 | [9] -0.089 | [10] -0.114 | [11] -0.039 | [13] 0.005 | [14] -0.006 | [16] -0.083 | [18] 0.047 | [19] 0.002

PAAT (UniProt Q9H8K7)
inactive: [1] -0.161 | [2] 0.029 | [3] -0.054 | [4] -0.014 | [5] 0.113 | [6] -0.039 | [7] 0.121 | [8] 0.222 | [9] 0.091 | [10] 0.001 | [11] 0.053 | [12] 0.115 | [13] -0.005 | [14] -0.006 | [15] 0.055 | [16] -0.044 | [17] 0.022 | [18] -0.092 | [19] -0.045 | [20] -0.011

2 records picked at random from those above, as already listed:
OGFR (UniProt Q9NZT2)
inactive: [1] -0.005 | [2] 0.048 | [3] 0.137 | [4] -0.042 | [5] -0.157 | [6] 0.023 | [7] -0.015 | [8] -0.152 | [9] 0 | [10] 0.019 | [11] 0.074 | [12] -0.067 | [13] 0.034 | [14] 0.19 | [16] -0.058 | [18] 0.133 | [19] 0.082 | [20] -0.068

NUDT5 (UniProt Q9UKK9)
inactive: [1] 0.073 | [2] -0.023 | [3] -0.017 | [4] 0.016 | [5] -0.03 | [6] -0.001 | [7] -0.015 | [8] 0.077 | [9] -0.027 | [10] -0.003 | [11] 0.001 | [12] -0.005 | [13] 0.033 | [14] -0.037 | [15] -0.043 | [16] 0.01 | [17] -0.018 | [18] -0.065 | [19] -0.043 | [20] 0.094

Next records:

NTMT1 (UniProt Q9BV86)
inactive: [2] -0.055 | [3] 0.091 | [4] -0.121 | [5] -0.043 | [6] 0.085 | [7] 0.062 | [8] -0.027 | [9] -0.001 | [10] 0.092 | [11] 0.128 | [12] 0.039 | [13] 0.074 | [14] -0.029 | [16] 0.093 | [18] 0.021 | [19] 0.071 | [20] 0.02
active: [1] -0.455

NT5C (UniProt Q8TCD5)
inactive: [1] -0.035 | [2] -0.023 | [3] -0.038 | [4] -0.019 | [5] -0.034 | [6] 0.045 | [7] -0.005 | [8] 0.039 | [9] -0.039 | [10] 0.049 | [11] 0 | [12] 0.035 | [13] 0.061 | [14] -0.02 | [15] 0.035 | [16] 0.038 | [17] -0.044 | [18] -0.04 | [19] -0.01 | [20] 0.011

NUMA1 (UniProt Q14980)
inactive: [1] 0.002 | [2] 0.266 | [3] 0.13 | [4] 0.07 | [5] -0.088 | [6] -0.223 | [7] -0.001 | [8] -0.247 | [9] 0.062 | [10] 0.021 | [11] 0.117 | [12] -0.001 | [13] -0.071 | [14] 0.089 | [16] -0.066 | [18] 0.07 | [19] 0.178 | [20] -0.089

NUP214 isoform 5 (UniProt P35658)
inactive: [1] 0.002 | [2] 0.181 | [3] 0.084 | [4] 0.082 | [5] -0.037 | [6] 0.076 | [7] -0.009 | [8] -0.07 | [9] 0.043 | [10] -0.033 | [11] 0.001 | [12] -0.141 | [13] -0.159 | [14] 0.232 | [15] -0.066 | [16] -0.069 | [17] 0.044 | [18] 0.135 | [19] 0.151 | [20] -0.105

OAT (UniProt P04181)
inactive: [1] -0.028 | [2] -0.183 | [3] 0.03 | [4] -0.054 | [5] -0.025 | [6] -0.095 | [7] 0.011 | [8] 0.004 | [9] -0.076 | [10] 0.12 | [11] -0.003 | [12] -0.123 | [13] 0.053 | [14] -0.083 | [16] -0.03 | [18] 0.018 | [19] 0.037
active: [20] -0.233

OPA1 isoform 2 (UniProt O60313)
active: [6] -0.249 | [12] -0.326 | [20] -0.337
inactive: [1] -0.01 | [2] -0.118 | [3] 0.035 | [4] -0.105 | [5] 0.002 | [7] -0.002 | [8] 0.002 | [9] 0.024 | [10] -0.07 | [11] 0.056 | [13] 0.048 | [14] -0.003 | [16] -0.063 | [18] 0.054 | [19] -0.031
